# Results taken from patent publication US8852876B2, “Label free biosensors and cells” (Corning Incorporated, priority 2008, dated 2014).
# At least one compound was matched to its structure with a doubt left. Some entries repeat one wording, which the source may state once for all of them. Where no end group is shown, it is not given here.
# Columns and labels:
# [1] = system: EGF-induced response of quiescent A431 cells; test: Effect of compound pretreatment on EGF-induced DMR response; type: cell-based, human; conditions: for Effect of pretreatment on 32 nM EGF-induced response: quiescent A431 cells
# Method: (§1) Both A431 and CHO-K1 cells were grown in Dulbecco's modified Eagle's medium (DMEM) supplemented with 10% fetal calf serum, 100 μg/ml penicillin, and 100 μg/ml streptomycin. For cell culture, certain numbers of cells (2×10^5 to 1×10^6), either A431 or CHO-K1, were suspended in […] medium were placed in each well of a 96 well Corning Epic Biosensor microplate, and were cultured at 37° C. in air/5% CO2 for certain time until the cell density reached ˜90% and above (unless specified). The resulted cells were termed as “profilerating” cells. The “quiescent” cells were obtained by culturing the profilerating cells of desired confluencies with a medium containing no or little (˜0.1% fetal bovine serum (FBS)) for at least 16 hours.
# (§2) During the assays, the cells in 100 μl medium were subject to two 25 μl HBSS buffer containing 20 mM HEPES, pH 7.4, each separated by at least 15 minutes before 50 μl stimulus-containing solution was applied. During all these steps, a parallel angular interrogation system was used to monitor the real time kinetics of cellular responses. For compound effect studies, a modified protocol was used which starts with 50 μl medium, and subject to sequential treatment: 25 μl HBSS buffer twice (each separated by at least 15 minutes), 50 μl compound solution and finally 50 μl stimulus-containing solution.
# [2] = target: phosphatidylinositol 3-kinase (PI 3-kinase); conditions: Powis et al. 1994; cited from earlier work
# [3] = system: endogenous GPCRs in A431 cells; test: DMR optical biosensor profiling of GPCR agonists; type: cell-based, human; conditions: quiescent A431; first class = Gq-type, second = Gs-type, third = Gi-type, fourth = no significant DMR
# quiescent A431 cells = test: GPCR agonist-induced DMR and EGFR transactivation; type: cell-based, human
# Method: as §1, §2
Compound,Effect of pretreatment on 32 nM EGF-induced response [1],Class of optical signature (DMR) induced by agonist [3],also measured
COc1cc(-c2ccc(=O)[nH]n2)ccc1OC(F)F [Zardaverine],None of these inhibitors had an obvious effect on the responses,–,–
COC[C@H]1OC(=O)c2coc3c2[C@@]1(C)C1=C(C3=O)[C@@H]2CCC(=O)[C@@]2(C)C[C@H]1OC(C)=O [wortmannin],little effect on the response,–,"Effect of pre-treatment on EGF-induced P-DMR and N-DMR signals ([1]; starved A431 cells, 8 nM EGF, 30-minute pretreatment, GH 0.5 ng/ml, PD98059 0.1 mM, PP1 1 μM, wortmannin 0.1 μM, DIP 50 μM): no obvious effect on both the P-DMR and N-DMR signals; IC50 [2]: 2 to 4 nM"
C=C[C@@]1(C)CC(=O)[C@]2(O)[C@@]3(C)[C@@H](O)CCC(C)(C)[C@@H]3[C@H](O)[C@H](OC(C)=O)[C@@]2(C)O1 [forskolin],–,an optical signature that is similar to those induced by either β2 or A2 agonists,–
RPPGFSPFR [bradykinin],–,first class of optical signatures,"GPCR agonist-induced DMR response curve (quiescent A431 cells; bradykinin 100 nM, carbachol 10 μM, clonidine 1 μM): an extremely rapid P-DMR phase (within 100 sec), and a much shorter transition time τ; Duration of P-DMR phase (quiescent A431 cells; bradykinin stimulation): ≤ 100 s"
CC(C)[C@H](NC(=O)[C@@H]1CSSC[C@H](NC(=O)[C@H](CC(=O)O)NC(=O)[C@@H]2CCCN2C(=O)[C@@H](NC(=O)[C@@H](N)CCC(=O)O)[C@@H](C)O)C(=O)N[C@@H](Cc2ccccc2)C(=O)N[C@@H](Cc2c[nH]c3ccccc23)C(=O)N[C@@H](CCCCN)C(=O)N[C@@H](Cc2ccc(O)cc2)C(=O)N1)C(=O)O [urotensin II],–,did not exhibited any significant DMR signals,–
CN1CCc2cc(Cl)c(O)cc2[C@@H](c2ccccc2)C1 [SCH23390],–,did not exhibited any significant DMR signals,–
